Record: PubChem BioAssay AID1224830 (NIAID, 2016)
Shown is an unselected part of about 18,000 reagents. About 2,900 of all reagents (16%) count as active. 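Calls are made per well; low scores hint the gene aids the LPS response, high scores that it dampens it.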 Repeated entries: four replicate wells of each siRNA pool.

Assay: 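Regulators of TLR4 signalling towards TNF-alpha in macrophage-like cells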 (primary screen)
Cells: human THP-1 monocytic leukaemia cells, TNF dual-luciferase reporter clone, PMA-differentiated to macrophage-like cells
Reagent: siRNA pool against human genes, 50 nM
Timing: LPS for 4 h, given about 3 days after siRNA transfection
Challenge: bacterial LPS (TLR4 ligand), 10 ng/ml
Measurement: 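Ratio of firefly to renilla light, scaled to the plate median and expressed as a robust z-score per replicate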
Scale: TNF reporter robust z-score: higher = stronger TNF reporter response to LPS
Rule for the call: 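Each well counts as active if its z-score is over 2.8 or under -1.5; controls are left without a call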

{"gene": "ANGPTL7 (angiopoietin like 7)", "TNF reporter robust z-score": -0.23, "outcome": "inactive"}
{"gene": "ANGPTL7 (angiopoietin like 7)", "TNF reporter robust z-score": 1.79, "outcome": "inactive"}
{"gene": "ANGPTL7 (angiopoietin like 7)", "TNF reporter robust z-score": 0.29, "outcome": "inactive"}
{"gene": "ANGPTL7 (angiopoietin like 7)", "TNF reporter robust z-score": 0.79, "outcome": "inactive"}
{"gene": "ADAMTS2 (ADAM metallopeptidase with thrombospondin type 1 motif 2)", "TNF reporter robust z-score": 0.91, "outcome": "inactive"}
{"gene": "ADAMTS2 (ADAM metallopeptidase with thrombospondin type 1 motif 2)", "TNF reporter robust z-score": 2.31, "outcome": "inactive"}
{"gene": "ADAMTS2 (ADAM metallopeptidase with thrombospondin type 1 motif 2)", "TNF reporter robust z-score": 1, "outcome": "inactive"}
{"gene": "ADAMTS2 (ADAM metallopeptidase with thrombospondin type 1 motif 2)", "TNF reporter robust z-score": 0.63, "outcome": "inactive"}
{"gene": "ZFP37 (ZFP37 zinc finger protein)", "TNF reporter robust z-score": 1.4, "outcome": "inactive"}
{"gene": "ZFP37 (ZFP37 zinc finger protein)", "TNF reporter robust z-score": 0.26, "outcome": "inactive"}
{"gene": "ZFP37 (ZFP37 zinc finger protein)", "TNF reporter robust z-score": -0.14, "outcome": "inactive"}
{"gene": "ZFP37 (ZFP37 zinc finger protein)", "TNF reporter robust z-score": 0.19, "outcome": "inactive"}
{"gene": "EVC2 (EvC ciliary complex subunit 2)", "TNF reporter robust z-score": -0.9, "outcome": "inactive"}
{"gene": "EVC2 (EvC ciliary complex subunit 2)", "TNF reporter robust z-score": -0.36, "outcome": "inactive"}
{"gene": "EVC2 (EvC ciliary complex subunit 2)", "TNF reporter robust z-score": -1.24, "outcome": "inactive"}
{"gene": "EVC2 (EvC ciliary complex subunit 2)", "TNF reporter robust z-score": -0.44, "outcome": "inactive"}
{"gene": "PAWR (pro-apoptotic WT1 regulator)", "TNF reporter robust z-score": -1.05, "outcome": "inactive"}
{"gene": "PAWR (pro-apoptotic WT1 regulator)", "TNF reporter robust z-score": -0.69, "outcome": "inactive"}
{"gene": "PAWR (pro-apoptotic WT1 regulator)", "TNF reporter robust z-score": -0.85, "outcome": "inactive"}
{"gene": "PAWR (pro-apoptotic WT1 regulator)", "TNF reporter robust z-score": -0.74, "outcome": "inactive"}
{"gene": "ATXN1 (ataxin 1)", "TNF reporter robust z-score": 1, "outcome": "inactive"}
{"gene": "ATXN1 (ataxin 1)", "TNF reporter robust z-score": 0.35, "outcome": "inactive"}
{"gene": "ATXN1 (ataxin 1)", "TNF reporter robust z-score": 0.99, "outcome": "inactive"}
{"gene": "ATXN1 (ataxin 1)", "TNF reporter robust z-score": 2.02, "outcome": "inactive"}
{"gene": "SLC26A9", "TNF reporter robust z-score": -1.22, "outcome": "inactive"}
{"gene": "SLC26A9", "TNF reporter robust z-score": -1.83, "outcome": "active"}
{"gene": "SLC26A9", "TNF reporter robust z-score": -1.66, "outcome": "active"}
{"gene": "SLC26A9", "TNF reporter robust z-score": -1.36, "outcome": "inactive"}
{"gene": "RAB2B (RAB2B, member RAS oncogene family)", "TNF reporter robust z-score": -0.04, "outcome": "inactive"}
{"gene": "RAB2B (RAB2B, member RAS oncogene family)", "TNF reporter robust z-score": 1.99, "outcome": "inactive"}
{"gene": "RAB2B (RAB2B, member RAS oncogene family)", "TNF reporter robust z-score": 1.06, "outcome": "inactive"}
{"gene": "RAB2B (RAB2B, member RAS oncogene family)", "TNF reporter robust z-score": 2.93, "outcome": "active"}
{"gene": "NDUFV1 (NADH:ubiquinone oxidoreductase core subunit V1)", "TNF reporter robust z-score": 0.54, "outcome": "inactive"}
{"gene": "NDUFV1 (NADH:ubiquinone oxidoreductase core subunit V1)", "TNF reporter robust z-score": -0.42, "outcome": "inactive"}
{"gene": "NDUFV1 (NADH:ubiquinone oxidoreductase core subunit V1)", "TNF reporter robust z-score": -0.15, "outcome": "inactive"}
{"gene": "NDUFV1 (NADH:ubiquinone oxidoreductase core subunit V1)", "TNF reporter robust z-score": 0.13, "outcome": "inactive"}
{"gene": "WWC3 (WWC family member 3)", "TNF reporter robust z-score": -1.22, "outcome": "inactive"}
{"gene": "WWC3 (WWC family member 3)", "TNF reporter robust z-score": 0.91, "outcome": "inactive"}
{"gene": "WWC3 (WWC family member 3)", "TNF reporter robust z-score": 0.51, "outcome": "inactive"}
{"gene": "WWC3 (WWC family member 3)", "TNF reporter robust z-score": 0.25, "outcome": "inactive"}
{"gene": "MRTFB (myocardin related transcription factor B)", "TNF reporter robust z-score": -0.32, "outcome": "inactive"}
{"gene": "MRTFB (myocardin related transcription factor B)", "TNF reporter robust z-score": -0.56, "outcome": "inactive"}
{"gene": "MRTFB (myocardin related transcription factor B)", "TNF reporter robust z-score": -0.49, "outcome": "inactive"}
{"gene": "MRTFB (myocardin related transcription factor B)", "TNF reporter robust z-score": -0.01, "outcome": "inactive"}
{"gene": "CYP46A1 (cytochrome P450 family 46 subfamily A member 1)", "TNF reporter robust z-score": 0.23, "outcome": "inactive"}
{"gene": "CYP46A1 (cytochrome P450 family 46 subfamily A member 1)", "TNF reporter robust z-score": 0.25, "outcome": "inactive"}
{"gene": "CYP46A1 (cytochrome P450 family 46 subfamily A member 1)", "TNF reporter robust z-score": -0.17, "outcome": "inactive"}
{"gene": "CYP46A1 (cytochrome P450 family 46 subfamily A member 1)", "TNF reporter robust z-score": 1.76, "outcome": "inactive"}
